Measurements reported in PubChem BioAssay AID588781 (Weizmann Institute, 2011).
Purpose: 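Kinases needed for rigidity sensing and shape polarity in fibroblasts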. Cell system: human foreskin fibroblasts (HFF). Knock-down reagent: siRNA against human genes. Treatment: cells plated on fibronectin-coated silicone of high versus low stiffness (range about 2 MPa to 5 kPa). Measurement: 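Actin-stained fibroblasts on stiff (about 2 MPa) or soft (about 5 kPa) fibronectin-coated silicone were imaged; shape, stress fibres and edges scored, differences given as (stiff − soft)/stiff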. Direction: stiff-soft elongation difference: higher = elongation depends more strongly on substrate stiffness; aspect ratio, stiff substrate: higher = more elongated cells on stiff substrate.
Here is one part, drawn at random, of 85 reagents tested. 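Knockdowns of interest may either weaken or strengthen the stiffness dependence of elongation, so both low and high differences matter.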 Not all columns of the deposit are shown. Not given: the amount of reagent, the time to read-out.

| Gene | stiff-soft elongation difference | aspect ratio, stiff substrate |
| --- | --- | --- |
| AXL | -0.05 | 2 |
| RYK | 0.36 | 2.5 |
| PTK2 | 0.3 | 2 |
| ABL2 | 0.38 | 2.4 |
| EPHB3 | 0.25 | 2 |
| FYN | 0.19 | 2.1 |
| TWF1 | 0.1 | 2 |
| ITK | 0.24 | 2.1 |
| EPHB2 | 0.2 | 1.7 |
| FLT3 | 0.09 | 1.7 |
| CSK | 0.12 | 1.5 |
| MUSK | 0.21 | 1.8 |
| PDGFRA | 0.24 | 2.1 |
| FLT1 | 0.21 | 1.9 |
| EPHA7 | 0.18 | 1.6 |
| JAK1 | 0.13 | 2.1 |
| KIT | 0.28 | 1.8 |
| BTK | 0.22 | 2.3 |
| PTK6 | 0.18 | 1.8 |
| PTK7 | 0.21 | 2.1 |
